From PubChem BioAssay AID602296 (Broad Institute, 2012)
The whole screen tested about 2,000 compounds, of which about 190 (9.5%) were called active. About 14% were inconclusive and are not listed.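 Rule for the calls: active = fitted activation curve crossing 40% at a concentration no higher than the sample's top valid tested dose; inconclusive = flat fitted curve at 30% to 70% activation, or poor curve fit; inactive = signal decrease, flat curve within 30%, or the rest.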 The list lacks most of the strong results.

Assay: sustained heat shock response element induction – cell-based, mouse, luciferase, cherry-pick, dose, confirmation (AID 602296);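 note: test compounds applied by themselves with no MG132 co-treatment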
Conditions: NIH3T3-HGL HSF-1 response element luciferase, 48 h; at 26 µM (top of the series) unless noted

activation, inactive:
Cc1cn(Cc2ccccc2Cn2cc(C)c(=O)[nH]c2=O)c(=O)[nH]c1=O -1.32%
COc1cc2nc(NC(=O)c3ccc(Cl)cc3)sc(=O)c2cc1OC -12.1%
CC(=O)Oc1ccc(-c2cccc(C(=O)OCC(=O)N(C)c3ccccc3)c2)cc1 -9.99%
CCOC(=O)C(C(=O)OCC)C(Nc1ccc(Br)cc1)c1ccccc1 (stereo not drawn) -61%
Cn1c(/C=C/c2ccc([N+](=O)[O-])o2)nc2ccccc2c1=O -100%
CC#CC[N+](C)(C)CCCCCCCCCCCC -65%
CC(C)(C)c1ccc(Cn2c(=N)n(CC(O)c3ccco3)c3ccccc32)cc1 (stereo not drawn) -47.9%
CCOc1ccc(/C=N/NC(=O)C(C)N(c2ccc(OC)cc2)S(C)(=O)=O)cc1 (stereo not drawn) 8.66%
O=C1[C@@H]2Cc3c([nH]c4ccccc34)C(c3ccc([N+](=O)[O-])cc3)N2C(=O)CN1C1CC1 (stereo partly drawn) -1.65%
O=C(CSc1ncnc2c1nnn2-c1ccc(F)cc1)NCC1CCCO1 (stereo not drawn) -4.24%
CCc1ccc(NC(=O)CSC2=C(C#N)C(c3ccc4c(c3)OCO4)CC(=O)N2)cc1 (stereo not drawn) 10.5%
CCOC(=O)Cc1cnc(NC(=O)NC(C(=O)OCC)(c2ccccc2)C(F)(F)F)s1 (stereo not drawn) -11%
O=C(NCCc1cccc(Cl)c1)c1cc2ccccc2oc1=O 5.86%
COc1cc(C)c(S(=O)(=O)N2CCN=C2c2ccccc2)cc1C -8.16%
Cc1cccc(C)c1N1CCN(c2ccc3nnc(C(F)(F)F)n3n2)CC1 -75.2%
COc1ccc(S(=O)(=O)N(C)CC(=O)N2CCC(C(N)=O)CC2)cc1Cl 15.7%
Cc1ccc(S(=O)(=O)c2c(N)n(CCC(C)C)c3nc4ccccc4nc23)cc1 -64.2%
COc1cccc(C(=O)COC(=O)C(C)N2C(=O)C3C4C=CC(C4)C3C2=O)c1 (stereo not drawn) 1.17%
O=C(O)c1ccccc1OC(C(=O)Nc1cc(Cl)cc(Cl)c1)c1ccccc1 (stereo not drawn) -26.7%
ClCC1CSC(=NC23CC4CC(CC(C4)C2)C3)O1 (stereo not drawn) -9.01%
O=C(Nc1ccccc1C(=O)N1CCCC1)c1ncoc1-c1cccc(Cl)c1 -19.5%
CC(=O)N(C)c1ccc(OCC(O)Cn2c3ccc(Cl)cc3c3cc(Cl)ccc32)cc1 (stereo not drawn) -96%
O=C(N/N=C/c1ccccn1)c1cc(-c2ccc(Br)cc2)nc2ccccc12 7.99%
Clc1ccc(-n2c(SC/C=C/c3ccccc3)nnc2-c2cccnc2)cc1 -11.5%
Cc1cc(NC(=O)Cn2cnc3sc(C)c(-c4ccccc4)c3c2=O)no1 1.53%
Cn1cc(CNC(=O)c2sc3cccc(Cl)c3c2Cl)cn1 0.869%
CC(c1ccccc1)N1CC(C(=O)N2CCN(c3ccc(F)cc3)CC2)CC1=O (stereo not drawn) 5.29%
Cc1ccc(S(=O)(=O)n2cnc3ccccc32)cc1[N+](=O)[O-] 5.61%
COc1ccc2c(c1)-c1nc(/N=C/c3c(O)ccc4ccccc34)sc1CC2 -0.997%
C=CCSc1nnc(N2C(=O)C(O)=C(C(=O)c3ccco3)C2c2ccc(F)cc2)s1 (stereo not drawn) 3.75%
Cn1c(=O)cc(SCC(=O)N2CCOCC2)c2ccc(Cl)cc21 -7.83%
CC1CN(C(=S)NC(=O)C2CCCCC2)CC(C)O1 (stereo not drawn) -8.85%
N=c1c(S(=O)(=O)c2ccc(Cl)cc2)cc2c(=O)n3ccccc3nc2n1Cc1ccco1 12.6%
Cc1c(OCC(=O)NCCCn2ccnc2)ccc2c3c(c(=O)oc12)CCCC3 -7.74%
CCn1c(CNC(C)=O)nnc1SCC(=O)c1ccc(Br)cc1 -12% [at 12 µM]
Cc1ccc(NC(=S)N=Nc2c(O)n(C)c3ccc(S(=O)(=O)N4CCOCC4)cc23)cc1 -31.1%
Cc1cccc(S(=O)(=O)NCCC(=O)OC(C)C(=O)NC(=O)NC2CCCCC2)c1 (stereo not drawn) -9.37%
O=C(Nc1cccc(Cl)c1)c1cc(S(=O)(=O)NCCc2ccc(Cl)cc2)ccc1F -101%
CC(=O)/C(=N/Nc1ccc(Br)cc1)N1CCCc2ccccc21 -58.4%
CC(=O)Nc1ccc2c(c1)N(C(=O)CN(C)C)c1ccccc1CC2 8.29%
Cc1ccc(-n2nc3c(=O)n(C(C)C(=O)NCc4ccccc4Cl)nc(C)c3c2C)cc1 (stereo not drawn) -40.9%
CCC(Sc1nc2n[nH]c(C)c2c(=N)n1-c1ccc(C)c(Cl)c1)C(=O)N1CCOCC1 (stereo not drawn) -35.5%
COc1ccc(C(=O)/C=C/C(=O)N(CC(=O)NC2CCCCC2)Cc2ccccc2)c(O)c1 -104%
O=C(Nc1cccc(Cl)c1)Nc1csc([N+](=O)[O-])c1 -42.5% [at 12 µM]
Cc1cccc(N(CC(=O)Nc2ccccc2-c2ccccc2)S(=O)(=O)c2ccccc2)c1C -30.2%
COc1cc(/C=C/C(=O)OCc2c(C)noc2C)ccc1OC(F)F -31.2%
CCC(C)(C)NC(=O)C(c1ccc(C)cc1)N(Cc1cccs1)C(=O)c1ccc2c(c1)OCCO2 (stereo not drawn) -63.5%
O=C(NC1CCCCC1)c1cnn2c(C(F)(F)F)cc(-c3ccco3)nc12 -16.6%
CCc1[nH]c(=O)c(C#N)c2c1CSC(C)(C)C2 3.45%
COc1ccc(S(=O)(=O)N/N=c2\oc3c(OC)cccc3cc2S(=O)(=O)c2ccc(C)cc2)cc1OC -22%
O=C(Nc1ccc([N+](=O)[O-])cc1)C1C(c2ccccc2)=C1c1ccccc1 -16.1%
COc1ccccc1NC(=O)N(Cc1ccco1)Cc1cc2ccc(C)c(C)c2[nH]c1=O -60%
O=S(=O)(c1ccc(Cl)c(NC(=S)N/N=C/c2ccc(O)cc2)c1)N1CCOCC1 -6.39%
O=C(Nc1ccccc1)C1=C(O)CC(c2ccoc2)CC1=Nc1ccccc1 (stereo not drawn) 4.14%
COc1cc(C(=O)NCC2CCCO2)ccc1OCc1ccc(Cl)cc1Cl (stereo not drawn) 3.14%
CCNC(=O)C(=O)NCc1ccncc1 -12.5%
Cn1c(SCC(=O)NNC(=O)Nc2ccc(Cl)cc2)nnc1-c1ccccc1 10.8%
O=S1(=O)NC(=NCC(c2ccco2)N2CCCCC2)c2ccccc21 (stereo not drawn) -6.74%
Cc1ccc(O)c(C(=O)c2cnc3c(c2)CN(CCC(C)C)C(=O)N3)c1 -37%
Cc1cccc(C(C)C)c1NC(=O)COC(=O)c1cccc(S(=O)(=O)N2CCc3ccccc3C2)c1 -3.49%
CCOC(=O)C1(CCOc2ccccc2)CCN(Cc2cc(OC)c3c(c2)OCO3)CC1 -22.8%
Oc1ccc2ccccc2c1CN1CCN(c2ccccc2)CC1 4.29%
O=C1CC(N(Cc2ccc3c(c2)OCO3)C(=O)Nc2ccc(F)cc2)C(=O)N1c1ccccc1 (stereo not drawn) -26.6%
Cc1[nH][nH]c(=O)c1C=NCc1cccs1 2.6%
CC1=CC(=O)C(C(C)C)=C/C1=N/OS(=O)(=O)c1ccccc1 -102%
COc1ccc(-n2c(=O)c3c4c(sc3n(CC(N)=O)c2=O)CCCCC4)cc1 0.737%
Cc1cc(SC#N)cc(C)c1NC(=O)CCl -40%
CCN1C(=O)c2cccc3c(S(=O)(=O)Nc4ncccc4C)ccc1c23 -42.9%
Cc1ccccc1Cn1c(-c2cncs2)nc2ccccc21 3.23%
O=C(NCCc1ccccc1)N1c2ccccc2Sc2ccccc21 -48.5%
COc1cc(-c2nnc3sc(Cc4ccc(Cl)cc4)nn23)cc(OC)c1OC -27.6%
Cc1noc(C)c1COC(=O)c1ccccc1Oc1ccccc1 -13.4%
Fc1ccc(/C=C2\CCCC3=C2Nc2ncnn2C3c2ccc(F)cc2)cc1 (stereo not drawn) -101%
Cc1ccc(C)c(S(=O)(=O)c2c(N)n(/N=C/c3ccco3)c3nc4ccccc4nc23)c1 -31.8%
Cc1cc(NC(=O)CCC(=O)N(CC(=O)NC2CCCC2)Cc2cccs2)no1 9.09%
O=C(C#Cc1ccccc1)c1cccc([N+](=O)[O-])c1 -96.1%
CCOc1cc(/C=C2\CCCc3c2nc2ccccc2c3C(=O)O)ccc1OC 8.24%
O=S(=O)(c1ccc(-n2cnnn2)cc1)N1CCNCC1 -0.865%
Cc1c(NC(=O)C(C)N2CC(C)OC(C)C2)c(=O)n(-c2ccccc2)n1C (stereo not drawn) 6.22%
O=C(c1ccco1)N(Cc1ccc([N+](=O)[O-])cc1)c1ccc(Br)cc1 -59.4%
CCOC(=O)c1sc2nc(CC(=O)OC)nc(NCc3ccco3)c2c1C -4.65%
Cc1cccc(-c2cccc(NC(=O)C3CCCN(C(=O)c4cccnc4)C3)c2)c1 (stereo not drawn) 4.95%
Cc1ccc(C2=NN(C(=O)c3cccs3)C(c3ccccc3O)C2)cc1 (stereo not drawn) 2.65%
C/C=C/c1c(F)c(F)c(Oc2ccc(C(=O)O)cc2)c(F)c1F 1.8%
COc1ccccc1CNCC(c1ccccc1)c1ccccc1 0.928%
Nc1nnnn1/N=C\c1ccc(Cl)c([N+](=O)[O-])c1 3.22%
COc1ccc(C2c3ccc(O)cc3Oc3ncn(Cc4ccco4)c(=N)c32)cc1 (stereo not drawn) -37.5%
Cc1ccc(Sc2ccc(NC(=O)CCl)cc2)c(C)c1 -16.8%

Random excerpt: 3 entries already listed
activation, inactive:
COc1cccc(C(=O)COC(=O)C(C)N2C(=O)C3C4C=CC(C4)C3C2=O)c1 (stereo not drawn) 1.17%
O=S(=O)(c1ccc(Cl)c(NC(=S)N/N=C/c2ccc(O)cc2)c1)N1CCOCC1 -6.39%
O=C(Nc1cccc(Cl)c1)Nc1csc([N+](=O)[O-])c1 -42.5% [at 12 µM]
